Results deposited as PubChem BioAssay AID686937 (Drosophila RNAi Screening Center, 2013)

- Test: 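Genes whose loss weakens secretory pathway function in fly cells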 (primary screen)
- Cells: Drosophila S2 cells expressing secreted horseradish peroxidase
- Reagent: long dsRNA against Drosophila genes
- Time to read-out: about 5.5 days (5 days dsRNA, then 12 h reporter induction)
- Treatment: reporter expression induced after 5 days of dsRNA, read 12 h later; inducer not stated
- Detection: 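Chemiluminescent measurement of peroxidase in the medium 12 h after reporter induction, following 5 days of dsRNA, given as a z-score per plate; higher means more secretion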
- Scale: z-score: higher = more reporter secreted into medium
The deposit covers about 23,000 reagents; shown is an unselected part of those that have a named target and a result. 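Reduced-secretion tags in replicate 1 do not always agree with the z-scores; no criterion for assigning the tags was given.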 A plus sign joins genes that one reagent is predicted to hit. The record does not give: the amount of reagent.

gene | dsRNA | z-score, replicate 1 | z-score, replicate 2 | z-score, replicate 3 | z-score, replicate 4 | phenotype, replicate 1
lectin-21Ca | DRSC00541 | 0.27 | 0.07 | – | – | –
Men-b (Malic enzyme b) | DRSC16736 | 0.23 | 0.51 | – | – | –
dj-1beta | DRSC14599 | 0.07 | 0.38 | – | – | –
CG2604 | DRSC12313 | 0.44 | 0.56 | – | – | –
CG12617 | DRSC02176 | 0.32 | -0.25 | – | – | –
CG3108 | DRSC18280 | 0.24 | 0.09 | – | – | –
Ir75c (Ionotropic receptor 75c) | DRSC10190 | 0.16 | 0.12 | – | – | –
CG2663 | DRSC12314 | 0.52 | 0.52 | – | – | –
CG32147 | DRSC09346 | 0.17 | 0.19 | – | – | –
Nt5b (5' nucleotidase B) | DRSC19976 | 0.3 | 0.47 | – | – | –
Nt5b (5' nucleotidase B) | DRSC19977 | 0.3 | 0.51 | – | – | –
Nt5b (5' nucleotidase B) | DRSC19978 | 0.22 | 0.44 | – | – | –
Nt5b (5' nucleotidase B) | DRSC22588 | -0.17 | -0.22 | – | – | –
MESK2 (Misexpression suppressor of KSR 2) | DRSC04258 | 0.18 | 0.38 | – | – | –
elgi (early girl) | DRSC10242 | 0.28 | 0.37 | – | – | –
AsnRS (Asparaginyl-tRNA synthetase) | DRSC01990 | -1.56 | -0.84 | – | – | reduced secretion
CG11345 | DRSC08176 | 0.33 | 0.61 | – | – | –
Paip2 (polyA-binding protein interacting protein 2) | DRSC14504 | 0.41 | 0.29 | – | – | –
CG6231 | DRSC15997 | 0.38 | 0.52 | – | – | –
CG5767 | DRSC06953 | 0.2 | 0.59 | – | – | –
mre11 (meiotic recombination 11) | DRSC03570 | 0.5 | 0.39 | 0.31 | 0.26 | –
mre11 (meiotic recombination 11) | DRSC22628 | 0.1 | 0.08 | – | – | –
CG18128 | DRSC04304 | 0.33 | 0.33 | – | – | –
Fas3 (Fasciclin 3) | DRSC01638 | 0.33 | -0.09 | – | – | –
Fas3 (Fasciclin 3) | DRSC03326 | 0.76 | 0.62 | – | – | –
Fas3 (Fasciclin 3) | DRSC22776 | 0.09 | -0.28 | – | – | –
Lsm12a (LSM12 homolog a) | DRSC19702 | 0.25 | 0.29 | – | – | –
PK2-R1 (Pyrokinin 2 receptor 1) | DRSC16447 | 0.29 | 0.48 | – | – | –
Osi18 (Osiris 18) | DRSC12181 | 0.36 | 0.33 | – | – | –
Rim (Rab3 interacting molecule) | DRSC16224 | 0.33 | 0.22 | – | – | –
Rim (Rab3 interacting molecule) | DRSC16225 | -3.14 | -0.32 | – | – | reduced secretion
Rim (Rab3 interacting molecule) | DRSC16226 | 0.34 | 0.41 | – | – | –
Rim (Rab3 interacting molecule) | DRSC16227 | 0.49 | 0.36 | – | – | –
Rim (Rab3 interacting molecule) | DRSC22406 | -0.3 | -0.42 | – | – | –
tal-1A + tal-2A + tal-AA + 1 more | DRSC12992 | 0.12 | 0.21 | – | – | –
RpL36 (Ribosomal protein L36) | DRSC18708 | -2.22 | -3.77 | – | – | reduced secretion
Ctl2 (Choline transporter-like 2) | DRSC14423 | 0.51 | 0.53 | – | – | –
CG6661 + asRNA:CR42871 | DRSC10687 | 0.4 | 0.56 | – | – | –
CG15905 | DRSC06591 | 0.53 | 0.22 | – | – | –
RpL37A (Ribosomal protein L37A) | DRSC02899 | -1.91 | -2.68 | – | – | reduced secretion
CG43117 | DRSC13767 | 0.48 | 0.8 | – | – | –
CG14787 | DRSC18606 | 0.04 | 0.31 | – | – | –
hrg (hiiragi) | DRSC07502 | -1.99 | -1.55 | – | – | reduced secretion
CG42335 | DRSC14597 | 0.37 | 0.49 | – | – | –
CG42335 | DRSC15892 | 0.32 | 0.37 | – | – | –
Hsp26 (Heat shock protein 26) | DRSC11189 | 0.4 | 0.31 | – | – | –
Mov10 (Mov10 RISC complex RNA helicase) | DRSC07012 | 0.16 | 0.33 | – | – | –
CG43336 | DRSC15765 | -0.18 | -0.03 | – | – | –
moody | DRSC18515 | 0.38 | 0.43 | – | – | –
CG5835 | DRSC15886 | 0.36 | 0.33 | – | – | –
Scgalpha (Sarcoglycan alpha) | DRSC03076 | 0.58 | 0.42 | – | – | –
CG42336 | DRSC05273 | 0.17 | 0.16 | – | – | –
CG42336 | DRSC06332 | 0.11 | 0.18 | – | – | –
CG42336 | DRSC06333 | -4.04 | 0.31 | 0.18 | -4.26 | –
CG17287 | DRSC06659 | 0.62 | 0.39 | – | – | –
Ir85a (Ionotropic receptor 85a) | DRSC14382 | 0.22 | 0.1 | – | – | –
nSyb (neuronal Synaptobrevin) | DRSC08727 | 0.15 | 0.21 | – | – | –
nSyb (neuronal Synaptobrevin) | DRSC22961 | -0.7 | -0.13 | – | – | –
retn (retained) | DRSC04679 | 0.48 | 0.5 | – | – | –
CG30279 (retired record) | DRSC22417 | 0.25 | 0.04 | – | – | –
CG43277 | DRSC05800 | 0.54 | -0.94 | – | – | –
btv (beethoven) | DRSC01615 | 0.01 | 0.09 | – | – | –
btv (beethoven) | DRSC02449 | -0.04 | 0.4 | – | – | –
Kah (Kahuli) | DRSC07887 | 0.85 | 0.47 | – | – | –
Kah (Kahuli) | DRSC08515 | 0.53 | 0.19 | – | – | –
CG15186 | DRSC12566 | 0.23 | 0.41 | – | – | –
CG32988 | DRSC02692 | 0.59 | 0.56 | – | – | –
step (steppke) | DRSC03694 | 1.45 | 0.27 | – | – | –
step (steppke) | DRSC03699 | 0.11 | 0.14 | – | – | –
CG15080 | DRSC06511 | 0.45 | 0.23 | – | – | –
Jon65Ai (Jonah 65Ai) | DRSC09731 | 0.32 | 0.5 | – | – | –
CG15611 | DRSC06563 | 0.5 | 0.43 | – | – | –
CG15611 | DRSC06564 | 0.38 | 0.31 | – | – | –
CG32196 | DRSC09548 | 0.7 | 0.38 | – | – | –
CG14082 | DRSC10086 | 0.53 | 0.45 | – | – | –
CG14932 | DRSC02414 | 0.32 | 0.36 | – | – | –
Cad86C (Cadherin 86C) | DRSC15587 | 0.36 | 0.69 | – | – | –
Cad86C (Cadherin 86C) | DRSC15611 | -0.01 | 0.34 | – | – | –
CG16826 | DRSC02527 | 0.28 | 0.26 | – | – | –
CG32266 | DRSC08062 | 0.12 | -0.06 | – | – | –
CG15024 | DRSC08478 | 0.4 | 0.54 | – | – | –
Oda (Ornithine decarboxylase antizyme) | DRSC07626 | 0.39 | 0.46 | – | – | –

Already shown: entries from further up.
gene | dsRNA | z-score, replicate 1 | z-score, replicate 2 | z-score, replicate 3 | z-score, replicate 4 | phenotype, replicate 1
Fas3 (Fasciclin 3) | DRSC22776 | 0.09 | -0.28 | – | – | –
Lsm12a (LSM12 homolog a) | DRSC19702 | 0.25 | 0.29 | – | – | –
PK2-R1 (Pyrokinin 2 receptor 1) | DRSC16447 | 0.29 | 0.48 | – | – | –
Osi18 (Osiris 18) | DRSC12181 | 0.36 | 0.33 | – | – | –
